According to publication PMC4152224:

Target: T1, Vascular endothelial cadherin (human (endogenous in CRL-2922)) (UniProt P33151)
T1 sequence: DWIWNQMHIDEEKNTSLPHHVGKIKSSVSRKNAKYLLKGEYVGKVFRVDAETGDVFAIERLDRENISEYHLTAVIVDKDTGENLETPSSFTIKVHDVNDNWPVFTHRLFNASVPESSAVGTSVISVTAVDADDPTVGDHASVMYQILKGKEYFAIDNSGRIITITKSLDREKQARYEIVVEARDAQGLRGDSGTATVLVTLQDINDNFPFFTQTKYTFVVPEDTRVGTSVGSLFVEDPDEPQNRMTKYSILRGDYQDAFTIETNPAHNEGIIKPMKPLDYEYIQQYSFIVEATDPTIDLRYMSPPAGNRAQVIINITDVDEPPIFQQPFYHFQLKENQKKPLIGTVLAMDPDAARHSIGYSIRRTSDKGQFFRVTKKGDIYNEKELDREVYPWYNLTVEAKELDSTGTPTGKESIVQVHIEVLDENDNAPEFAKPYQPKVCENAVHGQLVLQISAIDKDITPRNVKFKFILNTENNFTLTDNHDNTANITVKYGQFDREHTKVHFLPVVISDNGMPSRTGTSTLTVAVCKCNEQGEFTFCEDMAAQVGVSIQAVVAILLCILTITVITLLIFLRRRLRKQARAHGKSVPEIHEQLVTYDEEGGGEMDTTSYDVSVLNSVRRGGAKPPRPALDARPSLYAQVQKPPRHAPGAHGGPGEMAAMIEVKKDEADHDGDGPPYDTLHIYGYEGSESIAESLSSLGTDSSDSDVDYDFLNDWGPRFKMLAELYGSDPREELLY
Experiment: co-IP; total protein of CRL-2922 cells after LPS (10 µg/mL, 1 h to 4 h), with or without CPZ, clathrin siRNA, filipin, Cav-1 siRNA, SU6656, CLI-095, Cyt D or Jasp; primary antibody overnight at 4°C, protein G-agarose 24 h, washed 4 times with radioimmunoprecipitation assay buffer, SDS-PAGE and blot, densitometry ratio

- binding: binds
Substance: Clathrin (human (endogenous in CRL-2922))

No constants are given. Whether binding was seen depends on the method and setting. In cells and extracts the contact can be indirect. Binding calls can cover weak binding; strength is not graded here.
